Patent US20180348231A1, “LIGAND INDUCIBLE POLYPEPTIDE COUPLER SYSTEM” (Intrexon Corporation, priority 2015, published 2018)
For at least one compound, name, drawing or mass did not settle the structure.

Test system: 293T cells
Assay: Bioluminescence assay, mock (no vector), activating ligand alone
Assay type: cell-based
Details: Table 2, −control, Treatment Ligand
Protocol: A day before transfection, 10,000 cells (293T cells) were plated into each well of a 96 well plate containing 100 μl of growth medium (Dulbecco's Modified Eagle's Medium with 10% Fetal Bovine Serum) without antibiotics. Plasmids in pairs, RxR Nluc with Cluc EcR and EcR_ Nluc with Cluc_ RxR (see FIG. 8; amino acid sequences for the constructs depicted in FIG. 8 are provided as SEQ ID NOs: 87-92, respectively. SEQ ID NOs: 91 and 92 correspond to the EcR and RXR amino sequences, respectively, employed in the constructs of FIG. 8), were transfected with Lipofectamine® 2000, according to manufacturer's specifications. Briefly, individual plasmid DNA (0.2 μg) and 0.5 μl of Lipofectamine 2000® was diluted in 25.0 μl of OptiMEM® I Reduced Serum Medium and incubated for 5 minutes at room temperature, volumes were doubled for co-transfections. Diluted plasmid DNA was combined with diluted Lipofectamine® 2000 and incubated for 20 minutes at room temperature. 50 μl of the DNA/Lipofectamine® 2000 complex was added to each well of the 96 well plate. Cells were incubated at 37° C. in a 5% CO2 incubator for 24 hours, prior to addition of the activating ligand Veledimex.
Twenty four hours (24hrs) post-transfection, cell culture media from each well of the 96-well plate was replaced with 100 nM Veledimex activating ligand and Dimethyl sulfoxide-DMSO (negative control). […]

## CCC[C@@H](N(NC(=O)c1cccc(OC)c1CC)C(=O)c1cc(C)cc(C)c1)C(C)(C)C [Veledimex]
  fLuc Activity: −
